Laboratory results taken from PMC6560085.
These are yes or no findings as the source states them, for the method shown. In cells and extracts the contact can be indirect. A yes stands for co-enrichment or nearness to the bait. Other partners may have been found.

Protein sequences, listed by entry. Tags and fused reporters are not part of them.
UniProt P09874: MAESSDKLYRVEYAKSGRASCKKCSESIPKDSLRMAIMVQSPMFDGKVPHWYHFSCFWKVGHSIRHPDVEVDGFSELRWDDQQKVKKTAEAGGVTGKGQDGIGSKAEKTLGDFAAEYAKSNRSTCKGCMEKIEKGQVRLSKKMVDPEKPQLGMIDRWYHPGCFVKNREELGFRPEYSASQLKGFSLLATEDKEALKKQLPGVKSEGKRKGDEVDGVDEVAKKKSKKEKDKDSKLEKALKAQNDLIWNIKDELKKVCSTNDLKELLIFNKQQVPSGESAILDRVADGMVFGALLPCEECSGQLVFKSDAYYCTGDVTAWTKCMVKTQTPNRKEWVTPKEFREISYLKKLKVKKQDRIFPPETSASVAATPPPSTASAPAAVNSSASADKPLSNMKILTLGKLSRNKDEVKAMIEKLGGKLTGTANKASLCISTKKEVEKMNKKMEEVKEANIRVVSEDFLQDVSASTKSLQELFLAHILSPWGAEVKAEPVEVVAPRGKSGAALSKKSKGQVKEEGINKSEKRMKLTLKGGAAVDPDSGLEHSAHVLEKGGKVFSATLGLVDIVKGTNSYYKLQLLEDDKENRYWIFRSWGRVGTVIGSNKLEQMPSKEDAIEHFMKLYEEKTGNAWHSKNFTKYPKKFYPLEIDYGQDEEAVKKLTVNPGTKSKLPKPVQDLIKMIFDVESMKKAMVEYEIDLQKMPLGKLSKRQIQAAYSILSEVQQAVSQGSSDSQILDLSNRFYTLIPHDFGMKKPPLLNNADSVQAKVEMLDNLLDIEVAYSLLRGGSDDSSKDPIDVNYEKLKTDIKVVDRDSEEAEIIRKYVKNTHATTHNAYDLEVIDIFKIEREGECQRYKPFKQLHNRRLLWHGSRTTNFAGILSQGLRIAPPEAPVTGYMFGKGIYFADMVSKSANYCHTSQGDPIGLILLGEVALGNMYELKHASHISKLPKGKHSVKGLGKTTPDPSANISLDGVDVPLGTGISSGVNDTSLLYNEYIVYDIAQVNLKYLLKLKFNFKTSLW
UniProt P06748: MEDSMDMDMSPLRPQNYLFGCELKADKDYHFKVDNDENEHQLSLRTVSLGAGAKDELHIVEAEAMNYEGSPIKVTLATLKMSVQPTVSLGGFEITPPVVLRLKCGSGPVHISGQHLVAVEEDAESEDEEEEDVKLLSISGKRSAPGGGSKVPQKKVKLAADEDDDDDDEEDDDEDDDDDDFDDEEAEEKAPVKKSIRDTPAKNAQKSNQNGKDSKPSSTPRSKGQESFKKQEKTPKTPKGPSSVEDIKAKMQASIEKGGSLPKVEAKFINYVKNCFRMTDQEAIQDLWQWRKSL
UniProt P26599: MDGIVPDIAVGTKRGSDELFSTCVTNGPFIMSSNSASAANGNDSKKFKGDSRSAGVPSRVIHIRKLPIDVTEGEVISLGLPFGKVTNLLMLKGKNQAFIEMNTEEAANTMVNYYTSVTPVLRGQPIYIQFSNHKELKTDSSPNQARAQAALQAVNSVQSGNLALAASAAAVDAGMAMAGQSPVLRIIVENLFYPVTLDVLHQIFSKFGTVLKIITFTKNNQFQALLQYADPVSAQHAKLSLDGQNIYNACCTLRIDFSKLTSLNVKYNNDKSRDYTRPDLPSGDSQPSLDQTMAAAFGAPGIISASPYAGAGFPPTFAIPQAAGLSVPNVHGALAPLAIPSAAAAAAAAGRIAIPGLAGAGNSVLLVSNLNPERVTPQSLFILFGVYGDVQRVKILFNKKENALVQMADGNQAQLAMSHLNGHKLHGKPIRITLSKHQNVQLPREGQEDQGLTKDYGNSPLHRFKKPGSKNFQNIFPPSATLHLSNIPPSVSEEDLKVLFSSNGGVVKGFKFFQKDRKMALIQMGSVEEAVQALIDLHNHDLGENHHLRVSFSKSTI

What follows are substances tested against endogenous TARDBP (human (endogenous in T23)) (UniProt Q13148) (assay: affinity purification with mass spectrometry; nuclear lysate of T23 cells (high salt extraction, RIPA added); 2.2 mg nuclear proteins co-immunoprecipitated with anti-TARDBP antibody (Dynabeads Co-Immunoprecipitation Kit); LC-MS/MS).
PARP1 (from UniProt P09874 1-1014) was tested, and the binding was “binds”. In the case of HNRNPK (from UniProt P61978 1-463), the binding is reported as “binds”. With NPM1 (from UniProt P06748 1-294) the binding was “binds”. With PTBP1 (from UniProt P26599 1-557) the binding was “binds”.
